Data published in US6645283B1, “Anthrapyridone compounds, water-based magenta ink composition, and method of ink-jet printing” (Nippon Kayaku Kabushiki Kaisha, priority 1998, dated 2003).

Assay: Hue and vividness (L*, a*, b*, C*) of ink-jet recorded image, colorimeter GRETAG SPM50
Conditions: ink of Table 2
Text: Each water-based ink composition was produced by preparing the liquids which contain the anthrapyridone compounds (dyestuff components) of No.2, No.5 and No.15 respectively and have a composition of Table 2 as shown below, and then filtering through 0.45 μm membrane filter.
By using an ink-jet printer (Trade name: PICTY80L, made by NEC KK), ink-jet recordings were done on four types of recording sheets: a plain paper (Printer paper A4, TLB5A4S made by Canon KK), a special paper A (Color BJ Paper LC101 made by Canon KK), a special paper B (Coated paper for color image jetting, STX73A4 made by Sharp KK), and a glossy film (Special glossy film, MJA4SP6 made by Seiko-Epson KK).
A recorded paper was subject to color determination using the colorimeter (GRETAG SPM50, made by GRETAG Co.) to calculate L*,a*,b* values. Hue was evaluated on the base of the L*,a*,b* values, and vividness was evaluated from a value calculated by the formula: […]
The preferable recorded image has values in hue and vividness close to those of a color sample of standard magenta in Japan Color by Japan Printing Machinery Manufacturers Association (JNC).

Cn1c(=O)cc2c3c(c(Nc4cc(Nc5nc(NCCS(=O)(=O)O)nc(Nc6cc(C(=O)O)cc(C(=O)O)c6)n5)ccc4S(=O)(=O)O)ccc31)C(=O)c1ccccc1-2 [No.2]
Hue a* (Glossy Film (GF)): 81.2
Hue b* (Glossy Film (GF)): −6.6
Hue a* (Plain Paper (PP)): 59.2
Hue b* (Plain Paper (PP)): −1.6
Hue a* (Special Paper A (SA)): 67.4
Hue b* (Special Paper A (SA)): −2.7
Hue a* (Special Paper B (SB)): 75.5
Hue b* (Special Paper B (SB)): 1.6

Cn1c(=O)cc2c3c(c(Nc4cc(Nc5nc(Cl)nc(Nc6cc7c(S(=O)(=O)O)cc(S(=O)(=O)O)cc7cc6S(=O)(=O)O)n5)ccc4S(=O)(=O)O)ccc31)C(=O)c1ccccc1-2 [No.15]
Hue a* (Glossy Film (GF)): 79.6
Hue b* (Glossy Film (GF)): 4.4
Hue a* (Plain Paper (PP)): 59.1
Hue b* (Plain Paper (PP)): 4.5
Hue a* (Special Paper A (SA)): 68.5
Hue b* (Special Paper A (SA)): 1.9
Hue a* (Special Paper B (SB)): 75.0
Hue b* (Special Paper B (SB)): 9.8

Cn1c(=O)cc2c3c(c(Nc4cc(Nc5nc(NCC(=O)O)nc(Nc6cc(C(=O)O)cc(C(=O)O)c6)n5)ccc4S(=O)(=O)O)ccc31)C(=O)c1ccccc1-2 [No.5]
Hue a* (Glossy Film (GF)): 81.9
Hue b* (Glossy Film (GF)): −5.3
Hue a* (Plain Paper (PP)): 59.2
Hue b* (Plain Paper (PP)): −2.4
Hue a* (Special Paper A (SA)): 67.1
Hue b* (Special Paper A (SA)): −2.9
Hue a* (Special Paper B (SB)): 74.9
Hue b* (Special Paper B (SB)): 1.0
